{
  "source": "paper PMC12376507",
  "target": "T1, Flag-HPD (4-hydroxyphenylpyruvate dioxygenase with N-terminal Flag tag) (human) (UniProt P32754)",
  "T1 sequence": "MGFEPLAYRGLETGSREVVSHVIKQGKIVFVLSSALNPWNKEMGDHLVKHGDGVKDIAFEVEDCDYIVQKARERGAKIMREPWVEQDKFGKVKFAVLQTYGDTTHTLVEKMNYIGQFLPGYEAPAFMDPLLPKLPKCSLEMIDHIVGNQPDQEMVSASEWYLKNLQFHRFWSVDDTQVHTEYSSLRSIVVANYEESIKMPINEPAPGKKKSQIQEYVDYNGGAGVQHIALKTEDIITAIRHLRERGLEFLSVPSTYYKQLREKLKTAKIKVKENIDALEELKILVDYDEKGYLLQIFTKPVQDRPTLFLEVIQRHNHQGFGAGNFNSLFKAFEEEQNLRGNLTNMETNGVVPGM",
  "assay": "affinity purification with mass spectrometry; Flag-HPD overexpressed in A2780 cells for 48 h; lysate immunoprecipitated with Flag antibody, IgG as negative control; SDS-PAGE, bands analysed by mass spectrometry",
  "note": "No constants are given. Whether binding was seen depends on the method and setting. Binding seen in cells or lysates may run through a third protein. Here binding means that the protein was enriched with, or labelled near, the bait; the list need not be complete. Sequences can lack the tags named with a protein.",
  "data": [
    {"substance": "RPL20 (human (endogenous in A2780))", "values": [
      {"measurement": "binding", "result": "binds"}
    ]}
  ]
}
